Measured values from PubChem BioAssay AID1296 (Columbia University Molecular Screening Center, 2008).
In all, about 130,000 compounds went through this assay and about 1,000 (0.77%) were called active. Inconclusive results, whose numbers are uncertain, are shown with a selection of clear calls.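 How the source made its calls: active means activation at 2 µM above a set limit, confirmed on inspection of the cell images; inconclusive means above the set limit but not confirmed on image inspection; inactive means the rest.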

assay: activators of insulin promoter-driven GFP, primary screen, imaging, TRM-6 cells (human fetal islet line), eGFP reporter, cell count (AID 1296;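 further: share of cells whose green reporter signal exceeds an intensity cutoff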); settings: at 2 µM, stronger effect = higher value, plate-scaled: unstimulated 0, stimulated control 100
How it was run: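 Assay system: TRM-6 human fetal islet cells, insulin promoter–eGFP reporter; Also added: 0.75 µM tamoxifen as reporter inducer; Schedule: 15 h tamoxifen pre-treatment, 48 h compound treatment at 37 °C; Signal: fixed-cell fluorescence microscopy, eGFP plus Hoechst; Read-out: percent activation from GFP-positive cell fraction; Control set: stimulated and unstimulated wells.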

Row | SMILES | activation
1 | Cc1nc(NCCc2ccccc2)c2oc3ccccc3c2n1 | inactive: -68.8%
2 | CCOC(=O)c1ccccc1NC(=O)CSc1ccccc1 | inactive: -6.98%
3 | C=CCn1c(N)c(-c2nc3ccccc3n2C)sc1=S | inconclusive: 70.6%
4 | Cc1ccc(OC(=O)c2cc3ccccc3o2)cc1 | active: 79.3%
5 | Cc1cccc2cc(CN(Cc3nnnn3C3CCCC3)C3CCCCC3)c(=O)[nH]c12 | inconclusive: 433%
6 | Cc1ccc(C)c(N2CCN(C(=O)c3ccccc3Br)CC2)c1 | inconclusive: 170%
7 | COc1ccc(-c2nc(-c3cccc(C)c3)nc(Cl)c2C#N)cc1 | inconclusive: 127%
8 | Cc1nn(C)c(C)c1S(=O)(=O)N(CC(=O)NCCN1CCOCC1)c1ccc(C(C)C)cc1 | inactive: -12.5%
9 | CSc1ccccc1C(=O)C1CCCN(C(=O)CCc2cccnc2)C1 (centres undefined) | inactive: 0%
10 | Cc1ccccc1CS(=O)(=O)CCC(=O)NCCCN1CCOCC1 | inconclusive: 177%
11 | O=C(N/N=C\C=C\c1ccc2c(c1)OCO2)C1COc2ccccc2O1 (centres undefined) | inconclusive: 260%
12 | Cc1ccc(NC(=O)CCCSc2nc3ccccc3[nH]2)cc1 | inconclusive: 373%
13 | CCCC(=O)c1ccc(N2CCCC2)c(F)c1 | inconclusive: 469%
14 | CCn1c(Cc2ccc(OC)cc2)nnc1SCC(=O)Nc1cccc(C(=O)OC)c1 | active: 443%
15 | COC(=O)C(C)Sc1nnc2n(-c3cccc(C)c3)c(=O)c3c4c(sc3n12)CCCC4 (centres undefined) | inconclusive: 200%
16 | CC(C)(C)c1ccc(-c2nnc(SCCC#N)n2C2CCCC2)cc1 | inconclusive: 91.7%
17 | Cc1occc1C(=O)n1nnc2ccccc21 | inconclusive: 407%
18 | CC1=NN(c2ccccc2)C(=O)C1C(=O)C(=O)Nc1ccc(F)cc1 (centres undefined) | inactive: -8.57%
19 | COc1ccc(/C=C/C2=CC(C)(C)NC(=S)N2)cc1OC | inactive: 0%
20 | C#CCSc1nnc(CSc2nc3ccccc3s2)n1-c1ccccc1 | inconclusive: 436%
21 | CCOc1ccc(C2N(c3cc(C)on3)C(=O)C3CCCN32)cc1OC (centres undefined) | active: 120%
22 | c1ccc(-n2ncc3c(N4CCN(CCOc5cccc6ccccc56)CC4)ncnc32)cc1 | inactive: 3.7%
23 | COc1cccc(CN(C)CC(=O)NCc2ccccc2Cl)c1OC | inconclusive: 375%
24 | CC(C)CC(=O)NS(=O)(=O)c1ccc(N)cc1 | inconclusive: 456%

Row | SMILES | activation
25 | CC(C)(C)OC(=O)N[C@@H](Cc1ccccc1)c1nnc(S(=O)(=O)Cc2cccc(F)c2)o1 | inconclusive: 200% [cytotoxic]
26 | CC(NC(=O)CCNS(=O)(=O)c1ccc2c(c1)c(=O)n(C)c(=O)n2C)c1ccccc1 (centres undefined) | inconclusive: 127%
27 | CC(=O)Oc1cccc(N2C(=O)c3ccc(C(=O)Nc4c[nH]c(=O)[nH]c4=O)cc3C2=O)c1 | active: 214%
28 | COc1ccc(-c2nc(CSCC(=O)N3CCN(c4cccc(C)c4)C(C)C3)c(C)o2)cc1OC (centres undefined) | inconclusive: 288%
29 | CCn1c(SCC(=O)N/N=C/c2cc(OC)c(O)c(OC)c2)nc2ccccc21 | inactive: -2.7%
30 | CCN1/C(=C/c2ccc3cc(C)ccc3[n+]2C)Sc2ccc3sccc3c21 | active: 376%
31 | Clc1ccccc1OCc1nn2c(-c3ccncc3)nnc2s1 | inconclusive: 438%
32 | COc1ccc(NC(=O)/C(Cl)=C(/Cl)S(=O)Cc2ccccc2Cl)cn1 (centres undefined) | active: 669%
33 | CCOC(=O)c1nnn(-c2nonc2N)c1-c1ccc(F)cc1 | inactive: 0%
34 | NC(=O)CSc1nc2ccccc2c(=O)n1Cc1ccco1 | inconclusive: 479%
35 | O=C(CSCCNS(=O)(=O)c1ccccc1)Nc1ccccc1 | inactive: 9.68%
36 | Cn1c(SCc2ccccc2)nc(C(F)(F)F)cc1=O | inconclusive: 223%
37 | O=c1[nH]ncc(NCCCO)c1Cl | inconclusive: 419%
38 | S=C(NCc1ccc2c(c1)OCO2)Nc1ccc(-c2nc3ccccc3[nH]2)cc1 | inconclusive: 373%
39 | Cc1sc2ccccc2[n+]1CCC(C)S(=O)(=O)[O-] (centres undefined) | inactive: 8.7%
40 | Nc1ccc(Br)cc1C(NCC(=O)O)c1ccccc1 (centres undefined) | inactive: 0%
41 | CCN(CC)Cc1c(O)c(Cl)cc2c(C)c(C)c(=O)oc12 | inconclusive: 517%
42 | Cc1nc2ccc(S(=O)(=O)NC(C(=O)NCc3cccs3)C(C)C)cc2s1 (centres undefined) | active: 250%
43 | Cc1ccc(OCCN2C(=O)C(=O)c3cc(C)ccc32)cc1 | inconclusive: 358% [cytotoxic]
44 | CCn1ncc(/C=N/NS(=O)(=O)c2ccc(Cl)cc2)c1C | inactive: 5.71%
45 | Cc1cc(C)cc(N2CCCn3c2nc2c3c(=O)n(CCN3CCOCC3)c(=O)n2C)c1 | inconclusive: 630%
46 | O=C(NC1CCN(Cc2ccccc2)CC1)c1ccc2c(c1)[nH]c(=O)n2Cc1ccc(F)cc1 | inconclusive: 219%
47 | O=C(CSc1ncn(-c2ccccc2)n1)Nc1nccs1 | inactive: -8.33%
48 | COC(=O)c1ccc2c(c1)N(C)C(=O)CS2 | inconclusive: 517%

Row | SMILES | activation
49 | CCCCn1nnnc1NCc1cccnc1 | inconclusive: 406%
50 | COC(=O)c1cc(NC(=O)c2cccc(Cl)c2)c(=O)oc1/C=C/Nc1cc(C)cc(C)c1 | active: 809%
51 | CCc1ccc(N(C(=O)CCC(=O)Nc2cc(C)on2)C(C(=O)NC2CCCC2)c2ccco2)cc1 (centres undefined) | inconclusive: 494%
52 | Cc1cc(Cl)ccc1OC(C)C(=O)N1CCCN(C(=O)C(C)Oc2ccc(Cl)cc2C)CC1 (centres undefined) | inconclusive: 575%
53 | Cc1nnc(NC(=O)CSc2ncnc3c2cnn3-c2ccccc2C)s1 | active: 147%
54 | CCc1nnc(NC(=O)c2c(OC)cccc2OC)s1 | inconclusive: 670%
55 | CCOC(=O)c1cnc2ccc(C(=O)OC)cc2c1NCc1ccco1 | inconclusive: 450%
56 | Cc1ccc(OCC(=O)NNC(=O)c2cc3ccccc3o2)cc1 | inconclusive: 233%
57 | Cc1ccc(C(=O)NCC(=O)NCC(=O)OCC(=O)c2cccs2)cc1 | active: 471%
58 | S=C(Nc1ccc2c(c1)OCO2)NC1CCN(Cc2ccccc2)CC1 | inconclusive: 579%
59 | O=C(Nc1ccc(Cl)cc1)c1ccc2c(c1)OCO2 | inconclusive: 520%
60 | CSc1nc(N(C)NC(=O)c2ccccc2)c2ccccc2n1 | inconclusive: 160% [cytotoxic]
61 | CCCNC(=O)Nc1ccc2c(c1)N(C)C(=O)c1ccccc1S2 | inconclusive: 86.7%
62 | CCOc1cc(N2CCOCC2)c(OCC)cc1NC(=O)COC(=O)CCc1c[nH]c2ccccc12 | inconclusive: 500%
63 | O=C(Nc1ccc(F)cc1F)c1ccco1 | inconclusive: 403%
64 | Cc1ccc(NC(=O)CC2SC(=NC3CCCCC3)NC2=O)cc1 (centres undefined) | inconclusive: 364%
65 | Cc1csc(NC(=O)c2cc3c(C)nn(Cc4ccccc4Cl)c3s2)n1 | inactive: -7.69%
66 | COc1ccc(-c2[nH]nc3oc(=O)c(CCO)c(C)c23)cc1 | inactive: -75%
67 | Cc1c2ccccc2nc2c(F)c(NC(C)C)c(F)c(F)c12 | active: 233%
68 | Cc1cc(C)n(CC(O)CN2c3ccccc3Sc3ccccc32)n1 (centres undefined) | active: 209%
69 | O=C(c1ccc(F)cc1)c1cn[nH]c1-c1ccccc1O | active: 171%
70 | CCCCCCOc1ccc(N2C(=O)CC(N3CCN(C(=O)c4ccco4)CC3)C2=O)cc1 (centres undefined) | inconclusive: 543%
71 | CCCCN(C(=O)NC(=O)Nc1c(C)cc(C)cc1C)S(C)(=O)=O | active: 164%
72 | COc1ccc(-n2cnnc2SCC(=O)Nc2cccc(S(=O)(=O)N3CCCCC3)c2)cc1 | inconclusive: 233% [cytotoxic]

Row | SMILES | activation
73 | CCOC(=O)CCc1c(C)c2ccc(O)cc2oc1=O | inconclusive: 103%
74 | COc1ccc(C(NC(=O)C(C)(C)C)NC(=O)C(C)(C)C)cc1 | active: 95%
75 | COc1ccc(N(C(C)=O)S(=O)(=O)c2cccs2)cc1 | active: 506%
76 | FC(F)(F)c1cccc(N2CCc3cn[nH]c32)c1 | inconclusive: 411%
77 | N=C(N)SCc1ccccc1Cl | inactive: 0%
78 | C1CN(CC23CC4CC(CC(C4)C2)C3)CCO1 | inconclusive: 436%
79 | COc1cc(NC(=O)c2ccc([N+](=O)[O-])o2)ccc1NC(=O)c1cccs1 | inconclusive: 209%
80 | O=C(CCOc1ccccc1)NCc1ccccc1 | inconclusive: 431%
81 | O=C(NCc1ccncc1)c1cc(C(=O)C2CC2)c[nH]1 | inactive: 6.67%
82 | CN(CCO)c1c2c(nc3cc(-c4cccc(F)c4)nn13)CCCC2 | active: 94.6%
83 | Cc1cccc(OCC(O)CNC(=O)c2ccccc2C(=O)O)c1 (centres undefined) | inactive: -7.41%
84 | CC1=C(C(=O)N(C)C)C(c2cccs2)NC(=O)N1 (centres undefined) | inconclusive: 481%
85 | Nc1nnc(Sc2ncccc2[N+](=O)[O-])s1 | inactive: -7.14%
86 | c1ccc(CN(Cc2cccs2)C(c2cccs2)c2nnnn2C2CCCC2)cc1 (centres undefined) | inconclusive: 479%
87 | O=[N+]([O-])c1cccc(S(=O)(=O)N2CCCC2)c1 | inconclusive: 212%
88 | CC(C)c1c(O)c2c(n(-c3ccccc3)c1=O)CCCC2 | inactive: 0%
89 | COC(=O)C1C(=O)c2c([nH]c(C(=O)OCC3CCCO3)c2C)CC1C (centres undefined) | inactive: -50%
90 | COc1ccc(NC(=O)NCc2cccnc2)cc1OC | inconclusive: 400%
91 | CCCCN=Cc1c(C)[nH]n(-c2ccccc2)c1=S | inconclusive: 312%
92 | Cc1cc(C(=O)NCCN2C(=O)S/C(=C\c3cccs3)C2=O)ccc1[N+](=O)[O-] | inactive: 3.23%
93 | COc1ccc(C(=O)C2CCCN(C(=O)c3cc4nc(C)cc(C)n4n3)C2)cc1F (centres undefined) | inconclusive: 292%
94 | Cc1nnn(C23CC4CC(CC(C(=O)NN)(C4)C2)C3)n1 | inconclusive: 325%

Some of the entries so far, as a markdown table.

| Row | SMILES | activation |
| --- | --- | --- |
| 81 | O=C(NCc1ccncc1)c1cc(C(=O)C2CC2)c[nH]1 | inactive: 6.67% |
| 82 | CN(CCO)c1c2c(nc3cc(-c4cccc(F)c4)nn13)CCCC2 | active: 94.6% |
| 83 | Cc1cccc(OCC(O)CNC(=O)c2ccccc2C(=O)O)c1 (centres undefined) | inactive: -7.41% |
| 84 | CC1=C(C(=O)N(C)C)C(c2cccs2)NC(=O)N1 (centres undefined) | inconclusive: 481% |
